Measurements reported in PubChem BioAssay AID1224829 (NIAID, 2016)
In all, the deposit lists about 3,800 reagents; below is a random part of them. 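Calls cover raised and lowered translocation; gene median uses one vendor's three siRNAs; qiagen siRNAs acted more weakly than ambion siRNAs.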 The numbers tell different reagents against one gene apart. Further read-outs or replicates are left out here.

Screen: 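Secondary check of hits that alter LPS-induced p65 translocation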 (follow-up of hits)
Cell system: mouse RAW264.7 G9 macrophage reporter cells
Reagent: single siRNA against mouse genes, 100 nM
Time to read-out: 2 days of siRNA knock-down, then 40 min of LPS before fixing
Treatment: LPS (Salmonella minnesota R595) at 10 ng/ml
Read-out: 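Imaging of GFP-p65 after 40 min of LPS; nuclear over perinuclear ring intensity ratio, scaled to plate median and non-targeting control wells, given as z-score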
Reading the numbers: p65 translocation z-score: higher = more nuclear NF-kappaB p65 after LPS
Hit rule: 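Active means the replicate-mean z-score lies beyond plus or minus 2, in either direction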
Meaning of the calls: active = changed p65 translocation (either direction); inactive = no clear change

For Phox2a (paired-like homeobox 2a) #1, siRNA vendor or control pool ambion single siRNA, the values are p65 translocation z-score, replicate mean 5.47; active.
Phox2a (paired-like homeobox 2a) #2, siRNA vendor or control pool ambion single siRNA gave p65 translocation z-score, replicate mean 1.37; inactive.
With Phox2a (paired-like homeobox 2a) #3, siRNA vendor or control pool ambion single siRNA, the entry reads p65 translocation z-score, replicate mean -1.24; inactive.
With Phox2a (paired-like homeobox 2a) #4, siRNA vendor or control pool qiagen single siRNA, the entry reads p65 translocation z-score, replicate mean -1.35; inactive.
Phox2a (paired-like homeobox 2a) #5, siRNA vendor or control pool qiagen single siRNA showed p65 translocation z-score, replicate mean -1.75; inactive.
Phox2a (paired-like homeobox 2a) #6, siRNA vendor or control pool qiagen single siRNA gave p65 translocation z-score, replicate mean -0.753; inactive.
With Tox (thymocyte selection-associated high mobility group box) #1, siRNA vendor or control pool ambion single siRNA, the entry reads p65 translocation z-score, replicate mean -3.15; active.
Tox (thymocyte selection-associated high mobility group box) #2, siRNA vendor or control pool ambion single siRNA scored p65 translocation z-score, replicate mean -2.71; active.
For Tox (thymocyte selection-associated high mobility group box) #3, siRNA vendor or control pool ambion single siRNA the deposit lists p65 translocation z-score, replicate mean -2.75; active.
Tox (thymocyte selection-associated high mobility group box) #4, siRNA vendor or control pool qiagen single siRNA showed p65 translocation z-score, replicate mean 1.68; inactive.
Tox (thymocyte selection-associated high mobility group box) #5, siRNA vendor or control pool qiagen single siRNA scored p65 translocation z-score, replicate mean 2.39; active.
For Tox (thymocyte selection-associated high mobility group box) #6, siRNA vendor or control pool qiagen single siRNA, the values are p65 translocation z-score, replicate mean 0.21; inactive.

Reagents listed above called active (5):
Phox2a (paired-like homeobox 2a) #1, siRNA vendor or control pool ambion single siRNA: p65 translocation z-score, replicate mean = 5.47; activity call = active
Tox (thymocyte selection-associated high mobility group box) #1, siRNA vendor or control pool ambion single siRNA: p65 translocation z-score, replicate mean = -3.15; activity call = active
Tox (thymocyte selection-associated high mobility group box) #2, siRNA vendor or control pool ambion single siRNA: p65 translocation z-score, replicate mean = -2.71; activity call = active
Tox (thymocyte selection-associated high mobility group box) #3, siRNA vendor or control pool ambion single siRNA: p65 translocation z-score, replicate mean = -2.75; activity call = active
Tox (thymocyte selection-associated high mobility group box) #5, siRNA vendor or control pool qiagen single siRNA: p65 translocation z-score, replicate mean = 2.39; activity call = active

The results go on:
Lrrc59 (leucine rich repeat containing 59) #1, siRNA vendor or control pool ambion single siRNA gave p65 translocation z-score, replicate mean 0.204; inactive.
Lrrc59 (leucine rich repeat containing 59) #2, siRNA vendor or control pool ambion single siRNA gave p65 translocation z-score, replicate mean 0.126; inactive.
Lrrc59 (leucine rich repeat containing 59) #3, siRNA vendor or control pool ambion single siRNA scored p65 translocation z-score, replicate mean -2.81; active.
For Lrrc59 (leucine rich repeat containing 59) #4, siRNA vendor or control pool qiagen single siRNA the deposit lists p65 translocation z-score, replicate mean 5.46; active.
Lrrc59 (leucine rich repeat containing 59) #5, siRNA vendor or control pool qiagen single siRNA gave p65 translocation z-score, replicate mean -2.7; active.
Lrrc59 (leucine rich repeat containing 59) #6, siRNA vendor or control pool qiagen single siRNA scored p65 translocation z-score, replicate mean -0.467; inactive.
Klra19 (killer cell lectin-like receptor, subfamily A, member 19) #1, siRNA vendor or control pool ambion single siRNA gave p65 translocation z-score, replicate mean -0.0444; inactive.
With Klra19 (killer cell lectin-like receptor, subfamily A, member 19) #2, siRNA vendor or control pool ambion single siRNA, the values are p65 translocation z-score, replicate mean -1.78; inactive.
For Klra19 (killer cell lectin-like receptor, subfamily A, member 19) #3, siRNA vendor or control pool ambion single siRNA the deposit lists p65 translocation z-score, replicate mean 0.208; inactive.
With Klra19 (killer cell lectin-like receptor, subfamily A, member 19) #4, siRNA vendor or control pool qiagen single siRNA the deposit lists p65 translocation z-score, replicate mean -0.785; inactive.
Klra19 (killer cell lectin-like receptor, subfamily A, member 19) #5, siRNA vendor or control pool qiagen single siRNA gave p65 translocation z-score, replicate mean 0.879; inactive.
With Klra19 (killer cell lectin-like receptor, subfamily A, member 19) #6, siRNA vendor or control pool qiagen single siRNA, the entry reads p65 translocation z-score, replicate mean 1.94; inactive.
